PubChem BioAssay AID1224830, NIAID, 2016

Purpose: 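Host factors that control LPS-induced TNF expression in human macrophages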 (primary screen)
Cells: human THP-1 monocytic leukaemia cells, TNF dual-luciferase reporter clone, PMA-differentiated to macrophage-like cells
Knock-down reagent: siRNA pool against human genes, 50 nM
Timing: LPS for 4 h, given about 3 days after siRNA transfection
Treatment: bacterial LPS (TLR4 ligand), 10 ng/ml
Detection: 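TNF firefly reporter luminescence divided by renilla, normalised to the plate median, then turned into a robust z-score for each replicate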
Scale: TNF reporter robust z-score: higher = stronger TNF reporter response to LPS
Hit rule: 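Each well counts as active if its z-score is over 2.8 or under -1.5; controls are left without a call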
This is a random part of about 18,000 deposited reagents. Over the whole deposit, about 2,900 (16%) were called active. 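Calls are made per well; low scores hint the gene aids the LPS response, high scores that it dampens it.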 Unmarked entries are inactive. Repeated entries: four replicate wells of each siRNA pool.

TNF reporter robust z-score | Gene
-2.23 (active) | HTR6 (5-hydroxytryptamine receptor 6)
-1.74 (active) | HTR6 (5-hydroxytryptamine receptor 6)
-1.38 | HTR6 (5-hydroxytryptamine receptor 6)
-1.45 | HTR6 (5-hydroxytryptamine receptor 6)
0.79 | CAVIN3 (caveolae associated protein 3)
1.55 | CAVIN3 (caveolae associated protein 3)
0.27 | CAVIN3 (caveolae associated protein 3)
1.22 | CAVIN3 (caveolae associated protein 3)
1.46 | RNF128 (ring finger protein 128)
1.1 | RNF128 (ring finger protein 128)
0.37 | RNF128 (ring finger protein 128)
-0.95 | RNF128 (ring finger protein 128)
0.43 | LHX9 (LIM homeobox 9)
1.02 | LHX9 (LIM homeobox 9)
0.71 | LHX9 (LIM homeobox 9)
0.5 | LHX9 (LIM homeobox 9)
2.89 (active) | KAT5 (lysine acetyltransferase 5)
1.51 | KAT5 (lysine acetyltransferase 5)
1.87 | KAT5 (lysine acetyltransferase 5)
3.67 (active) | KAT5 (lysine acetyltransferase 5)
-1.35 | TMEM229B (transmembrane protein 229B)
-0.94 | TMEM229B (transmembrane protein 229B)
-1.17 | TMEM229B (transmembrane protein 229B)
-1.39 | TMEM229B (transmembrane protein 229B)

The list goes on, starting with the last 4 of the part before.
TNF reporter robust z-score | Gene
-1.35 | TMEM229B (transmembrane protein 229B)
-0.94 | TMEM229B (transmembrane protein 229B)
-1.17 | TMEM229B (transmembrane protein 229B)
-1.39 | TMEM229B (transmembrane protein 229B)
0.42 | TMA7 (translation machinery associated 7 homolog)
-0.84 | TMA7 (translation machinery associated 7 homolog)
-0.48 | TMA7 (translation machinery associated 7 homolog)
-0.57 | TMA7 (translation machinery associated 7 homolog)
1.72 | SETD6 (SET domain containing 6, protein lysine methyltransferase)
1.42 | SETD6 (SET domain containing 6, protein lysine methyltransferase)
0.92 | SETD6 (SET domain containing 6, protein lysine methyltransferase)
0.5 | SETD6 (SET domain containing 6, protein lysine methyltransferase)
-0.02 | TRPC1
1.2 | TRPC1
0.91 | TRPC1
1.06 | TRPC1
-0.53 | KCNJ2 (potassium inwardly rectifying channel subfamily J member 2)
-0.86 | KCNJ2 (potassium inwardly rectifying channel subfamily J member 2)
-0.2 | KCNJ2 (potassium inwardly rectifying channel subfamily J member 2)
0.3 | KCNJ2 (potassium inwardly rectifying channel subfamily J member 2)
-1.23 | ZFP36 (ZFP36 zinc finger CCCH-type)
-1.51 (active) | ZFP36 (ZFP36 zinc finger CCCH-type)
-1.21 | ZFP36 (ZFP36 zinc finger CCCH-type)
-0.97 | ZFP36 (ZFP36 zinc finger CCCH-type)
1.5 | DCPH1 (damage control phosphatase 1)
0.61 | DCPH1 (damage control phosphatase 1)
0.75 | DCPH1 (damage control phosphatase 1)
1.67 | DCPH1 (damage control phosphatase 1)
